Reference: the supplement of paper PMC10849652
The list shows a part of the results.

Sequences of proteins named here, by UniProt entry; tags and fusion partners are left off. A change or cut given only in a name is not applied to a line headed by its entry.
UniProt O75844: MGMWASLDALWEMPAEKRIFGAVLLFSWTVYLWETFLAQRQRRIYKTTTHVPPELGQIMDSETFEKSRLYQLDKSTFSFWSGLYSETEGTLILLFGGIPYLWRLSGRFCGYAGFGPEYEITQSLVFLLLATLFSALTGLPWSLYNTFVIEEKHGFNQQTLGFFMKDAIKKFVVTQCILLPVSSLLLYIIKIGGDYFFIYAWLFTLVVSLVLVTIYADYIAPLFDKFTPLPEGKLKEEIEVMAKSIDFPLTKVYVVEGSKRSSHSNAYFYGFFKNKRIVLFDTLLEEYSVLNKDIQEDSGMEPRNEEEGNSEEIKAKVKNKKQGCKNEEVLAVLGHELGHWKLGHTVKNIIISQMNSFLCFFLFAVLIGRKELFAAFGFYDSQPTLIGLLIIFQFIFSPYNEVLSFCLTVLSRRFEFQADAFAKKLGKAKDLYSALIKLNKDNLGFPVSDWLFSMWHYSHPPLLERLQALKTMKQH
UniProt Q96QU8: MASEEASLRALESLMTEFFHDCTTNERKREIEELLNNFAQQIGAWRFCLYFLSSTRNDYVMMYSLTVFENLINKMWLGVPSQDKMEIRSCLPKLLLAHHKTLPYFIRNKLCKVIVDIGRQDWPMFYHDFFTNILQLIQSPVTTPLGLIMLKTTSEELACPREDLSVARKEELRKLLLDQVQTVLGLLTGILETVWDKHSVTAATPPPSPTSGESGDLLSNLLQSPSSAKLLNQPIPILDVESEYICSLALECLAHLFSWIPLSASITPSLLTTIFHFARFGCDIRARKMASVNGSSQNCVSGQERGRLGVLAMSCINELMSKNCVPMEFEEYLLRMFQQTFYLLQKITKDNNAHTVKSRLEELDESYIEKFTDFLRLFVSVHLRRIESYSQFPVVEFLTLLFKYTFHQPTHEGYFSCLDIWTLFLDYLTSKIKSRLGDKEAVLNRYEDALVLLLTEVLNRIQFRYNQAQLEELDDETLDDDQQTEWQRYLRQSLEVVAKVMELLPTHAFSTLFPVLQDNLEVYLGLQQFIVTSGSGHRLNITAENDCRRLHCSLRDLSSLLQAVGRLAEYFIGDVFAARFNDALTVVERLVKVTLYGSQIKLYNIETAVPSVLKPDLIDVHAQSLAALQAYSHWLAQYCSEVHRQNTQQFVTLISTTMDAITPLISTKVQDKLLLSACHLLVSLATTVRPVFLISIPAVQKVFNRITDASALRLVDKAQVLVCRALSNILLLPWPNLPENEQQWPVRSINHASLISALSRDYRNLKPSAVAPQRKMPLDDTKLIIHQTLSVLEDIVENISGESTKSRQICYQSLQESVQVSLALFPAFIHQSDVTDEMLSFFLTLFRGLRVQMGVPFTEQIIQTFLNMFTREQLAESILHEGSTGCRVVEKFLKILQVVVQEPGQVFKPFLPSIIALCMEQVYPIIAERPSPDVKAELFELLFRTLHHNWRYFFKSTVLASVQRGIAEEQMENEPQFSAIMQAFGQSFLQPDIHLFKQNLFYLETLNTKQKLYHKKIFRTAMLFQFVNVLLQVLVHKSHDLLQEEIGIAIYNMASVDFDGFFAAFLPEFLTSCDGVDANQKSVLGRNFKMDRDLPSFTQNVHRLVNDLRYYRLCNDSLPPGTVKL
UniProt Q14202: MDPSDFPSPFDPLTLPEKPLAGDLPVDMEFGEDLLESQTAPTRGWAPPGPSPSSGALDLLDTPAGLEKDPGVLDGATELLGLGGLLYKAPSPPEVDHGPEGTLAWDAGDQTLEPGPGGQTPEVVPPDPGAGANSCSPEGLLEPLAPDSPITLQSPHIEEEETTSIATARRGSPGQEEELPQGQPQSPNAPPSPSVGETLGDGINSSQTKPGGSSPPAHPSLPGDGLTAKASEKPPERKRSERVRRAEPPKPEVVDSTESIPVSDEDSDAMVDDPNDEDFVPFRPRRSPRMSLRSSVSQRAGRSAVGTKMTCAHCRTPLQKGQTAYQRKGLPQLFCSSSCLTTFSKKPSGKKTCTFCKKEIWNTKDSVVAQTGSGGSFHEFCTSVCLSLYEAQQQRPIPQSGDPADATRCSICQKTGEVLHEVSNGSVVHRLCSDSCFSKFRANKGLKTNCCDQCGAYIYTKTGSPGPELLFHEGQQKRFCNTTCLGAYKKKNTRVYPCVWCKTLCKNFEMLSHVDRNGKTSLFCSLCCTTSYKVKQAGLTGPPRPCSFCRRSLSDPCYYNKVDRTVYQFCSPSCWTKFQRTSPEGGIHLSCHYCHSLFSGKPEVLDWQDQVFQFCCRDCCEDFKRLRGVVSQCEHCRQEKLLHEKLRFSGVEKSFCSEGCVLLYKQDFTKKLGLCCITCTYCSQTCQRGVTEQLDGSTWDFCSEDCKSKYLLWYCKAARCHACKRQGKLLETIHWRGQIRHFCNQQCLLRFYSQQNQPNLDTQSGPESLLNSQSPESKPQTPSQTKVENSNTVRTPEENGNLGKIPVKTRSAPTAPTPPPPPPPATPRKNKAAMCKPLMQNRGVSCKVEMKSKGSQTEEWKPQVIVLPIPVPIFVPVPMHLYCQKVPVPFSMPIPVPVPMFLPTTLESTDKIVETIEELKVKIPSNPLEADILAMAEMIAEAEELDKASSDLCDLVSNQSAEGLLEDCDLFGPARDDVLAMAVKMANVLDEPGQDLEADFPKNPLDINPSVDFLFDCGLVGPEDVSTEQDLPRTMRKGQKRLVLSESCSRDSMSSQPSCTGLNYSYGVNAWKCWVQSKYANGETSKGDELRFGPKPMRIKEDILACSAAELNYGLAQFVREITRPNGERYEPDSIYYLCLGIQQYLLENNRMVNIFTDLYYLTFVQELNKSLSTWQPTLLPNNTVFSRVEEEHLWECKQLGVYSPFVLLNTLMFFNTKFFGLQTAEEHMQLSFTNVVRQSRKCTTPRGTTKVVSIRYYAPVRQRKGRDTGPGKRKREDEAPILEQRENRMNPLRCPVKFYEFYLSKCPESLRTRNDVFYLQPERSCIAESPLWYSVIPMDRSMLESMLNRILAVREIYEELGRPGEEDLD
UniProt Q5SVZ6: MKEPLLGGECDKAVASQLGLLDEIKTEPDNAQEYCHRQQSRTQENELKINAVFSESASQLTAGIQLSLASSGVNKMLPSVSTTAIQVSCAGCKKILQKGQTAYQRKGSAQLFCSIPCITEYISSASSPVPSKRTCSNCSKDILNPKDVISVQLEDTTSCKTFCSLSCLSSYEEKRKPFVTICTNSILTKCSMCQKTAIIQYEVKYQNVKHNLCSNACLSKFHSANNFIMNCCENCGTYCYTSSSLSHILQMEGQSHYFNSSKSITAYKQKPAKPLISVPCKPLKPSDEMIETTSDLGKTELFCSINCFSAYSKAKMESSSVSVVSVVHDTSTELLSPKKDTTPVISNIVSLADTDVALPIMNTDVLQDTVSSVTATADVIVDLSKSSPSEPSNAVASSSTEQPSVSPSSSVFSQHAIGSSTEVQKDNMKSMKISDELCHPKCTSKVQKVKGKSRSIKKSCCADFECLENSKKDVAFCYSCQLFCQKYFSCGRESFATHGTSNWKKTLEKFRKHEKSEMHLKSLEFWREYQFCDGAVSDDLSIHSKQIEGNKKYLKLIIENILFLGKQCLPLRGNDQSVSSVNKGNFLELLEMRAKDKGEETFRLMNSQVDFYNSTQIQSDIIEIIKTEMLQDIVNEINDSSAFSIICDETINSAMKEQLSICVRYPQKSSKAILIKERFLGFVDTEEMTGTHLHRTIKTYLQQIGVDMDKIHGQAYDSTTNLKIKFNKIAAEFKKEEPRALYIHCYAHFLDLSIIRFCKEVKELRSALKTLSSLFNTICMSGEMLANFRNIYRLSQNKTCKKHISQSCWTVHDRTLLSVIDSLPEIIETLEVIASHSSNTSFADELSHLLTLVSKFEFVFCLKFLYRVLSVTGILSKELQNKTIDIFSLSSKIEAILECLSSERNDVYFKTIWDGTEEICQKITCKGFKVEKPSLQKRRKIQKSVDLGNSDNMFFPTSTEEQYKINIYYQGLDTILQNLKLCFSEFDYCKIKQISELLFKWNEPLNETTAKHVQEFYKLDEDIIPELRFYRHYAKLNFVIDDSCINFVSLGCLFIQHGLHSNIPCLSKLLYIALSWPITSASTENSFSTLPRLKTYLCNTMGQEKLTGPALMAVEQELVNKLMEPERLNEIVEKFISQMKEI
UniProt Q7Z739: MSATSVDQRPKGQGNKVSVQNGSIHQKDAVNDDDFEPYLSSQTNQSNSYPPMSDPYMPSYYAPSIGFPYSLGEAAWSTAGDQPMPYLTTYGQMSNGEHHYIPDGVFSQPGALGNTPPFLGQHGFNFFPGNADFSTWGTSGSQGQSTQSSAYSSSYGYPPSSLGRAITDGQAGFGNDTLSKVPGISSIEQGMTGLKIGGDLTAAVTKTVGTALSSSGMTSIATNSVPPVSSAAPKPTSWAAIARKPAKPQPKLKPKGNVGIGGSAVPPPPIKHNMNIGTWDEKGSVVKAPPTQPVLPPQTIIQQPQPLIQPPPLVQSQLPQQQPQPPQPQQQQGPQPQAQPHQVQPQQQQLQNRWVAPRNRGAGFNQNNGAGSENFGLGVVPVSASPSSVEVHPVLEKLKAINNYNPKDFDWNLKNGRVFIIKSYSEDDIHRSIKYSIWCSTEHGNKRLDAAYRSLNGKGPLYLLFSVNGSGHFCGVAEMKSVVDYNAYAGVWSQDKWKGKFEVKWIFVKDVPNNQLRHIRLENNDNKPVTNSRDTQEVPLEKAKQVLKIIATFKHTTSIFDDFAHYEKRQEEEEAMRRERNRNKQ
UniProt O43542: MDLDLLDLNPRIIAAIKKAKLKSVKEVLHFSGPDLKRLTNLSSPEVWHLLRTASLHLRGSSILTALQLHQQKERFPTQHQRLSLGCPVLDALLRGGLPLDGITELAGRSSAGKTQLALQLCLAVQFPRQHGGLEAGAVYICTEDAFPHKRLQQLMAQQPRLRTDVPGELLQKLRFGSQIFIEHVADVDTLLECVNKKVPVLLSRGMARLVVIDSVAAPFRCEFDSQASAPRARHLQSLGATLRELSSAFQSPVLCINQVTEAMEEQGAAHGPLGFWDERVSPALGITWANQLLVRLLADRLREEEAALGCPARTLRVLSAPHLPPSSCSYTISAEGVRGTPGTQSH
UniProt Q16600: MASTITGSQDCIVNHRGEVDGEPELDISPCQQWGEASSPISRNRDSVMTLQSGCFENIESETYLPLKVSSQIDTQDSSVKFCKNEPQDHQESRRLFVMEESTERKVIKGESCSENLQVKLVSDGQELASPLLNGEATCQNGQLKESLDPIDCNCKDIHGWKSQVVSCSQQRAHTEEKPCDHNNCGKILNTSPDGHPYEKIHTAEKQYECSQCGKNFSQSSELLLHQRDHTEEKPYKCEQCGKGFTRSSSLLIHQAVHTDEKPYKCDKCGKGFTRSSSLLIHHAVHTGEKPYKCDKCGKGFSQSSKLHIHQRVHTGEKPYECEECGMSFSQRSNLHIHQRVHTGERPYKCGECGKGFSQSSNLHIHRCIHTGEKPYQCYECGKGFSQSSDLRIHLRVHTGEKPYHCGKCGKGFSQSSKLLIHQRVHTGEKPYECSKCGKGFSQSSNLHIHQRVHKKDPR
UniProt Q9NUE0: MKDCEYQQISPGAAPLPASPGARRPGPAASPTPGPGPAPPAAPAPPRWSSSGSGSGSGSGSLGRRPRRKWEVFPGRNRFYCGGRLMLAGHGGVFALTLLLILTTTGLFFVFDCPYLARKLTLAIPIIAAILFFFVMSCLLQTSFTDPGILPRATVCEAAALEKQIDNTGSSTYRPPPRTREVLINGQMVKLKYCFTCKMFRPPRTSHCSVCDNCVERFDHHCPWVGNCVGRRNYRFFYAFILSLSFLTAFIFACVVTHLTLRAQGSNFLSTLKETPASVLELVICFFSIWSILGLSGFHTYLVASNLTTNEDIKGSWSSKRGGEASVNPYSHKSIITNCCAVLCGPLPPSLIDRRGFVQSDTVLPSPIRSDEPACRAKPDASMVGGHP
UniProt Q9NQW7: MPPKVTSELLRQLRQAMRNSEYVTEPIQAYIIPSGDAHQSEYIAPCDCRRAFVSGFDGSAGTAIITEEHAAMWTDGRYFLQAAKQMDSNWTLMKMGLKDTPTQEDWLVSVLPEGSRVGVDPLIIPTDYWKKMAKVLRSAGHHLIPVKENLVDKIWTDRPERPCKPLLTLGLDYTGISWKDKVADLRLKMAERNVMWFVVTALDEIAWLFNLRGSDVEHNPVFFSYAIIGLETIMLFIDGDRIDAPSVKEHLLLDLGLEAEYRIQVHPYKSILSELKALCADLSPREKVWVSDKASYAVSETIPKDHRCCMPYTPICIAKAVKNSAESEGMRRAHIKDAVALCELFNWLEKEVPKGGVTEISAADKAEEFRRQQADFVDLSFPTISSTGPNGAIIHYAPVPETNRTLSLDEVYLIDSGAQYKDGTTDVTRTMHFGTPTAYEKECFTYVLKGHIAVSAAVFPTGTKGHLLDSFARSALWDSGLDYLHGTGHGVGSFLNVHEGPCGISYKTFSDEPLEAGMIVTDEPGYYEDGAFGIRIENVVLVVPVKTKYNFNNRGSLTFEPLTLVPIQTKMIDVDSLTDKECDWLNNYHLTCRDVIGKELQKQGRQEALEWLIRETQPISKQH

Legend:
Test in all cases: log2 fold change, soluble protein after heating vs DMSO (PISA); higher = thermal stabilisation; K562 cells, 10 uM, 30 min; active = over 0.2 and 3.5 SD of the protein, either way, in both replicates (recomputed)
erlotinib = compound: C#Cc1cccc(Nc2ncnc3cc(OCCOC)c(OCCOC)cc23)c1 [erlotinib]
How it was run: (§1)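 K562 cells (2×10^6 cells/mL) were treated with 10 μM compound for 30 min, and aliquots were heated for 3 min over 48°C-58°C. Pooled aliquots were extracted in PBS with 0.5% NP-40 at 4°C, and the supernatant after 21,000xg for 90 min was measured by TMTpro 16plex LC-MS/MS with channel sums equalised. Reported thermal stability, relative to control samples and from duplicates, is a log2 fold change.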

[1] = compound: C/C(=N\NC(=O)C1=CC(=CC=C1)S(=O)(=O)N2CCOCC2)/C3=C(C=CC(=C3)Cl)O
How it was run: as §1

[2] = compound: C1=CC(=C(C=C1Cl)C2=NC3=NC=CN=C3C(=N2)NC4=CC=NC=C4)F
How it was run: as §1

[3] = compound: C1=CC(=CC=C1C2=NC3=C(N2)C=C(C=C3)C(=O)N)OC4=CC=C(C=C4)Cl
How it was run: as §1

[4] = compound: C1=CC2=C(C=CC(=C2)/C=C\3/C(=O)NC(=NCC4=CC=CS4)S3)N=C1
How it was run: as §1

[5] = compound: C1=CC2=NC=CN=C2C=C1/C=C/3\C(=O)NC(=O)S3
How it was run: as §1

[6] = compound: C1=CC=C(C=C1)C2=NC(=C(N2)C3=CC=NC=C3)C4=CC(=C(C=C4)Cl)O
How it was run: as §1

[7] = compound: C1=CC=C2C(=C1)C3=NNC4=CC=CC(=C43)C2=O
How it was run: as §1

[8] = compound: C1CCN(C1)C(=O)NC2=CC=CC(=C2)NC3=NC=C(C(=N3)NCCC4=CN=CN4)Br
How it was run: as §1

[9] = compound: C1CN(CCC1(CC2=CC=C(C=C2)Cl)N)C3=NC=NC4=C3C=CN4
How it was run: as §1

Measured: log2 fold change

ZFAND3 (UniProt Q9H8U3)
inactive: erlotinib -0.021 | [1] 0.041 | [2] -0.064 | [3] 0.046 | [4] 0 | [5] -0.006 | [6] -0.037 | [7] -0.027 | [8] 0.03 | [9] 0.042

YDJC (UniProt A8MPS7)
inactive: erlotinib 0.046 | [1] 0.065 | [2] 0.009 | [3] -0.104 | [4] 0.025 | [5] 0.05 | [6] 0.08 | [7] 0.027 | [8] -0.009 | [9] -0.044

ZNF148 (UniProt Q9UQR1)
inactive: erlotinib 0.041 | [1] -0.216 | [2] 0.034 | [3] 0.187 | [4] 0.081 | [5] 0.162 | [6] 0.267 | [7] -0.078 | [8] -0.053 | [9] 0.026

YIPF5 isoform 3 (UniProt Q969M3)
inactive: erlotinib 0.011 | [1] 0.016 | [2] 0.024 | [3] 0.012 | [4] -0.008 | [5] 0.009 | [6] -0.05 | [7] -0.153 | [8] 0.033 | [9] 0.126

ZNF207 isoform 2 (UniProt O43670)
inactive: erlotinib -0.194 | [1] -0.078 | [2] 0.056 | [3] -0.097 | [4] -0.322 | [5] 0.083 | [6] 0.04 | [7] 0.123 | [8] 0.022 | [9] -0.144

ZMPSTE24 (UniProt O75844)
inactive: erlotinib -0.002 | [1] 0.004 | [2] 0.051 | [3] -0.02 | [4] -0.009 | [5] 0.039 | [6] -0.028 | [7] -0.005 | [8] 0 | [9] 0.06

XPO6 (UniProt Q96QU8)
inactive: erlotinib 0.07 | [1] 0.056 | [3] -0.055 | [4] 0.093 | [5] -0.15 | [6] -0.01 | [7] -0.008 | [8] 0.087 | [9] 0.02
active: [2] -0.465

ZMYM3 (UniProt Q14202)
inactive: erlotinib 0.042 | [1] -0.004 | [2] -0.012 | [3] -0.02 | [4] 0 | [5] 0.079 | [6] -0.033 | [7] -0.093 | [8] -0.042 | [9] 0.117

ZMYM1 (UniProt Q5SVZ6)
inactive: erlotinib 0.14 | [1] -0.174 | [2] -0.057 | [3] -0.135 | [4] 0.113 | [5] 0.005 | [6] -0.101 | [7] 0.001 | [8] -0.136 | [9] 0.052

ZFPL1 (UniProt O95159)
inactive: erlotinib -0.022 | [1] 0.099 | [2] 0.101 | [3] 0.055 | [4] 0.01 | [5] 0.021 | [6] -0.119 | [7] -0.055 | [8] -0.047 | [9] 0.071

XRCC4 (UniProt Q13426)
inactive: erlotinib -0.006 | [1] -0.007 | [2] 0.039 | [3] -0.002 | [4] 0.02 | [5] 0.014 | [6] -0.034 | [7] 0 | [8] 0.013 | [9] -0.003

YWHAE (UniProt P62258)
inactive: erlotinib 0.006 | [1] -0.023 | [2] 0.047 | [3] 0 | [4] -0.031 | [5] 0.027 | [6] -0.062 | [7] -0.016 | [8] 0.033 | [9] -0.009

YTHDF3 (UniProt Q7Z739)
inactive: erlotinib -0.035 | [1] 0.013 | [2] -0.044 | [3] 0.044 | [4] 0.095 | [5] -0.009 | [6] -0.02 | [7] 0.014 | [8] -0.003 | [9] -0.02

ZFAND5 (UniProt O76080)
inactive: erlotinib -0.028 | [1] -0.018 | [2] 0.003 | [3] -0.013 | [4] -0.015 | [5] -0.017 | [6] -0.024 | [7] -0.055 | [8] 0.01 | [9] 0.119

XPO5 (UniProt Q9HAV4)
inactive: erlotinib 0.011 | [1] 0.103 | [2] 0.105 | [3] -0.005 | [4] 0.011 | [5] 0.016 | [6] 0.023 | [7] -0.019 | [8] -0.024 | [9] -0.001

XRCC3 (UniProt O43542)
inactive: erlotinib 0.043 | [1] 0.05 | [2] 0.034 | [3] -0.068 | [4] 0.003 | [5] -0.01 | [6] 0.03 | [7] -0.001 | [8] -0.02 | [9] 0.04

ZNF239 (UniProt Q16600)
inactive: erlotinib -0.098 | [1] 0.019 | [2] -0.333 | [3] 0.248 | [4] 0.117 | [5] 0.065 | [6] 0.044 | [7] 0.004 | [8] 0.001 | [9] 0.117

YBX1 (UniProt P67809)
inactive: erlotinib -0.173 | [1] -0.242 | [2] -0.273 | [3] -0.033 | [4] -0.115 | [5] -0.009 | [6] -0.053 | [7] -0.051 | [8] 0.103 | [9] -0.159

ZER1 (UniProt Q7Z7L7)
inactive: erlotinib 0.086 | [1] 0.019 | [2] -0.022 | [3] -0.311 | [4] -0.016 | [5] 0.031 | [6] 0.012 | [7] -0.009 | [8] -0.015 | [9] 0.043

ZFYVE16 (UniProt Q7Z3T8)
inactive: erlotinib 0.028 | [1] 0.049 | [2] 0.044 | [3] 0.01 | [4] 0.032 | [5] 0.025 | [6] 0 | [7] -0.014 | [8] -0.005 | [9] 0.027

ZC3HC1 (UniProt Q86WB0)
inactive: erlotinib 0.075 | [1] 0.199 | [2] 0.128 | [3] -0.034 | [4] 0.077 | [5] 0.021 | [6] 0.024 | [7] -0.032 | [8] -0.078 | [9] 0.019

ZDHHC18 (UniProt Q9NUE0)
inactive: erlotinib 0.007 | [1] 0.033 | [2] 0.07 | [3] 0.078 | [4] 0.048 | [5] 0.027 | [6] 0.098 | [7] -0.087 | [8] -0.142 | [9] -0.062

YARS2 (UniProt Q9Y2Z4)
inactive: erlotinib 0.073 | [1] 0.006 | [2] 0.156 | [3] -0.047 | [4] 0.048 | [5] 0 | [6] 0.074 | [7] 0.145 | [8] -0.093 | [9] 0.03

ZMAT2 (UniProt Q96NC0)
inactive: erlotinib -0.017 | [1] 0.001 | [2] 0.018 | [3] 0.019 | [4] -0.063 | [5] -0.015 | [6] -0.042 | [7] 0.018 | [8] 0.017 | [9] 0.058

YWHAQ (UniProt P27348)
inactive: erlotinib -0.07 | [1] 0.204 | [2] 0.146 | [3] -0.021 | [4] -0.201 | [5] 0.003 | [6] 0.284 | [7] 0.089 | [8] -0.089 | [9] 0.029

ZFYVE27 isoform 2 (UniProt Q5T4F4)
inactive: erlotinib 0.003 | [1] 0.046 | [2] -0.035 | [3] -0.03 | [4] 0.003 | [5] 0.022 | [6] 0.001 | [7] 0.027 | [8] -0.217 | [9] 0.117

Reprinted at random: two entries already listed, in no set order.
YWHAQ (UniProt P27348)
inactive: erlotinib -0.07 | [1] 0.204 | [2] 0.146 | [3] -0.021 | [4] -0.201 | [5] 0.003 | [6] 0.284 | [7] 0.089 | [8] -0.089 | [9] 0.029

YARS2 (UniProt Q9Y2Z4)
inactive: erlotinib 0.073 | [1] 0.006 | [2] 0.156 | [3] -0.047 | [4] 0.048 | [5] 0 | [6] 0.074 | [7] 0.145 | [8] -0.093 | [9] 0.03

Further entries follow:

ZBTB21 (UniProt Q9ULJ3)
inactive: erlotinib 0.235 | [1] 0.068 | [2] -0.022 | [3] 0.053 | [4] -0.024 | [5] 0.156 | [6] -0.067 | [7] 0.006 | [8] 0.107 | [9] 0.024

XPNPEP1 isoform 3 (UniProt Q9NQW7)
inactive: erlotinib -0.005 | [1] -0.069 | [2] 0.067 | [3] 0.022 | [4] 0.076 | [5] -0.003 | [6] 0.048 | [7] 0.04 | [8] 0 | [9] 0.033

YIPF4 (UniProt Q9BSR8)
inactive: erlotinib 0.004 | [1] -0.06 | [2] -0.014 | [3] -0.039 | [4] -0.006 | [5] 0.04 | [6] -0.054 | [7] 0.033 | [8] -0.033 | [9] -0.016

YIPF3 (UniProt Q9GZM5)
inactive: erlotinib 0.021 | [1] -0.021 | [2] -0.013 | [3] -0.008 | [4] 0.079 | [5] 0.018 | [6] 0.009 | [7] 0.007 | [8] -0.097 | [9] 0.024
